Experimental data reported in publication PMC4488936.

By UniProt entry, the sequences of proteins in these tests, tags left out.
UniProt O61735: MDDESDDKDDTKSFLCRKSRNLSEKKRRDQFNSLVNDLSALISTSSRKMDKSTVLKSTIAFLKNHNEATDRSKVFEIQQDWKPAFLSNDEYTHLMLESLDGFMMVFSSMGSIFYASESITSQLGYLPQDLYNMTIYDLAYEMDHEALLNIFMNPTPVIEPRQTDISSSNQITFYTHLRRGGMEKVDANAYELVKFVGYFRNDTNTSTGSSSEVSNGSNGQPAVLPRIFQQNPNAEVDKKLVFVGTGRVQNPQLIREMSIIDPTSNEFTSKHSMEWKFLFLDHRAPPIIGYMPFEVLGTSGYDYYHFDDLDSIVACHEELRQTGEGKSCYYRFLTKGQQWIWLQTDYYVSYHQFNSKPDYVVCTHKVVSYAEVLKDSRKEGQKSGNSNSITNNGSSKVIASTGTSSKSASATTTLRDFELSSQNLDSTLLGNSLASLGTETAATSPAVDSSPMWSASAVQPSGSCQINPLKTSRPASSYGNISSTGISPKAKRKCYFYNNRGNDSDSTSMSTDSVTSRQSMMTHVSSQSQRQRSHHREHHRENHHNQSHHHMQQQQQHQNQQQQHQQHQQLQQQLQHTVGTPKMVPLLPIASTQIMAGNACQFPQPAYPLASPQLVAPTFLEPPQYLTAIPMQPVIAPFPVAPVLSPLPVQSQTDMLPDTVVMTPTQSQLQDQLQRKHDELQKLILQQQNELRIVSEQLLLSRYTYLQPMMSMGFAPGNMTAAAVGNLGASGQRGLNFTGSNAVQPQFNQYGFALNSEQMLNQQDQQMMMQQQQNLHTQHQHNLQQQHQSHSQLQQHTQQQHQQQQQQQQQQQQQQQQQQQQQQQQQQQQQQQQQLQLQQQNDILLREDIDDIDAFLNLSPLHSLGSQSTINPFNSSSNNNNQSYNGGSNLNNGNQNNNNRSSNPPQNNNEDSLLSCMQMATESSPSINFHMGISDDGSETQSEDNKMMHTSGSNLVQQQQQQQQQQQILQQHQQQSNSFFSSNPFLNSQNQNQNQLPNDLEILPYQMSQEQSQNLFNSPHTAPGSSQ
UniProt P25439: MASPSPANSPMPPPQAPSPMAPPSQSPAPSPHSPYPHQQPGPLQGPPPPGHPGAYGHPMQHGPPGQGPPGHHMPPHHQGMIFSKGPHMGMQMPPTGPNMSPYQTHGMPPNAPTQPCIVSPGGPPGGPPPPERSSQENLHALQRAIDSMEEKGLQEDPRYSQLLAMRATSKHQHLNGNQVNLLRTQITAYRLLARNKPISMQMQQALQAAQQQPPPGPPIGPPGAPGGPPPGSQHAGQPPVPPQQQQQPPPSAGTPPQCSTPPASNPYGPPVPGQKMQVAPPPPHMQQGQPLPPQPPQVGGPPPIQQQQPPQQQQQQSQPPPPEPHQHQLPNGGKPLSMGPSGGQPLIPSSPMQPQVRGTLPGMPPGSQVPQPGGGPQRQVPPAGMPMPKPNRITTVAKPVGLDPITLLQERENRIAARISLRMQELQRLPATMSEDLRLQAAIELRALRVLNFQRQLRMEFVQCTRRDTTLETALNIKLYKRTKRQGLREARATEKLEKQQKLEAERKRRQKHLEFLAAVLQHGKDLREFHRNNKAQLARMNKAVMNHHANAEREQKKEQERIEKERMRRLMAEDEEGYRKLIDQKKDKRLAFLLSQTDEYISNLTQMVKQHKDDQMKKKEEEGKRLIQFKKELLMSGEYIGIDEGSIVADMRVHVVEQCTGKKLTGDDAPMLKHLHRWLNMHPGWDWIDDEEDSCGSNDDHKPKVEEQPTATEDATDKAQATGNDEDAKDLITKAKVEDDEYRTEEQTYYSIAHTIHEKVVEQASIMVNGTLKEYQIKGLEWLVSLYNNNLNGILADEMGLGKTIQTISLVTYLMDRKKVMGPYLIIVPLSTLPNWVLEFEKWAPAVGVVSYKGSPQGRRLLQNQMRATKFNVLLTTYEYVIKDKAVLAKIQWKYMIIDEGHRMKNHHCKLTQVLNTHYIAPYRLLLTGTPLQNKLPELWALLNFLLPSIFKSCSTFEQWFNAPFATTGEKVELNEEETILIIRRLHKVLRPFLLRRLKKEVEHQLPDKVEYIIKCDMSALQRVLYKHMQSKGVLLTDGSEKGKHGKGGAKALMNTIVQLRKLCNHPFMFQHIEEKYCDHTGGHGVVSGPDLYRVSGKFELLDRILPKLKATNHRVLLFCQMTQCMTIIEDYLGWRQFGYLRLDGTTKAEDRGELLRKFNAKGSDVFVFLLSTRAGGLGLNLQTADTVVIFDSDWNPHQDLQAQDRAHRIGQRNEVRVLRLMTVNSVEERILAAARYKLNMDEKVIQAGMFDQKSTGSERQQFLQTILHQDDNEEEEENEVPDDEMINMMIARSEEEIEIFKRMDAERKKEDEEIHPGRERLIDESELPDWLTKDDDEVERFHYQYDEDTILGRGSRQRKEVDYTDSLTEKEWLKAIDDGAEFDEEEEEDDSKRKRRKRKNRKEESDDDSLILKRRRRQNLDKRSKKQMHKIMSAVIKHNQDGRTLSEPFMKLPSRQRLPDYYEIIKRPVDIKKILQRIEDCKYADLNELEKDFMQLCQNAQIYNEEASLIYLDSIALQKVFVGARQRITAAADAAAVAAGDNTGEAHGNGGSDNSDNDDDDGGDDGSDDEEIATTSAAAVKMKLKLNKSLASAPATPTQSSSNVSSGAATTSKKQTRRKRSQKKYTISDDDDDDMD

Molecular target: recombinant CLK modified with epitope tags (bait of the proteomic screen) (Drosophila melanogaster) (UniProt O61735)
Experiment: affinity purification with mass spectrometry; epitope-tagged CLK purified from cytoplasmic and nuclear extracts of S2 cells; label-free quantitative MS/MS; Brahma subunits found specifically in nuclear extracts

For “BRM, endogenous in S2 cells (from UniProt P25439 1-1638)”, the binding was “binds”.

Results are given in words; binding and its absence hold for the method and conditions named. In cells and extracts the contact can be indirect. A yes stands for co-enrichment or nearness to the bait. Other partners may have been found.
